In the supplement of paper PMC8104966:
Several values for one entry are separate records, joined by “and”; a condition that tells them apart may be missing. Equal entries are not always repeated. ± gives the standard deviation of the averaged measurements. The list shows a part of the results. This data set is noisy: repeats of one test often differ as much as different tests do.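 U2OS cells expressing ACE2 were combined with U2OS cells expressing full-length spike, and imaging quantified fusion as the fraction of nuclei displaying both cell types' fluorescent markers. Non-toxic compounds with a fusion z-score under -3, i.e., over three standard deviations below the plate's DMSO wells, are called inhibitory hits.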

The compounds below were run on U2OS ACE2 x SARS-CoV-2 spike co-culture (assay: cell-cell fusion (fraction fused) z-score vs plate DMSO control; higher = more fusion). Conditions: 30 µM; 5 h; toxicity class: non-toxic, passed QC.

Row | SMILES | cell-cell fusion (z-score)
1 | C=CC(N)CCC(=O)O (racemic) [(±)-gamma-Vinyl GABA] | inactive: 1.76
2 | CC(COc1ccccc1)N(CCCl)Cc1ccccc1.Cl (centres undefined) | inactive: 3.26
3 | Cc1c(OCC(F)(F)F)ccnc1CS(=O)c1nc2ccccc2[nH]1 (centres undefined) | inactive: 2.66
4 | CC1=C(C(=O)O)N2C(=O)[C@@H](N)[C@H]2SC1 [Cefalexine EP IMpurity B] | inactive: 0.701
5 | CC1(C)C(=O)[C@@H]2C[C@@]3(O)C4=CC(=O)O[C@@H](c5ccoc5)[C@]4(C)CCC3[C@@](C)(C2=O)[C@H]1CC(=O)O (some centres undefined) | inactive: 2.18
6 | Oc1ccc2ccccc2c1SSc1c(O)ccc2ccccc12 | active: -6.24
7 | CN(C)CCC(c1ccc(Br)cc1)c1ccccn1.O=C(O)/C=C\C(=O)O (racemic) [(±)-Brompheniramine maleate] | inactive: 2.66
8 | CCOC(=O)c1ccc(N)cc1 | inactive: 1.21
9 | O=[N+]([O-])c1ccc([As](=O)(O)O)cc1 | inactive: 1.51
10 | CC(C)OC(=O)OCOP(=O)(COC(C)Cn1cnc2c(N)ncnc21)OCOC(=O)OC(C)C (centres undefined) [Tenofovir Disoproxil] | inactive: 1.18
11 | CCCOc1ccc(C(=O)OCCN(CC)CC)cc1N.Cl [Proparacaine hydrochloride] | inactive: 2.02
12 | CC1(C)S[C@@H]2[C@H](NC(=O)C(C(=O)[O-])c3ccsc3)C(=O)N2[C@H]1C(=O)[O-].[Na+].[Na+] (some centres undefined) [Ticarcillin disodium] | inactive: 2.38
13 | CC1(C)C(=O)C=C[C@@]2(C)C1CC(=O)[C@]1(C)C2CC[C@@]2(C)[C@H](c3ccoc3)OC(=O)[C@H]3O[C@]321 (some centres undefined) | inactive: 0.538
14 | CCC(=O)OCC(=O)[C@@]1(OC(=O)CC)[C@@H](C)C[C@H]2[C@@H]3CCC4=CC(=O)C=C[C@]4(C)[C@@]3(Cl)[C@@H](O)C[C@@]21C [Beclomethasone dipropionate] | inactive: -1.86
15 | Cc1ccccc1-n1c(Cn2cnc3c(N)ncnc32)nc2cccc(C)c2c1=O | inactive: 0.263
16 | COc1cc([C@H]2Oc3cc([C@H]4Oc5cc(O)cc(O)c5C(=O)[C@@H]4O)ccc3O[C@@H]2CO)ccc1O | inactive: 1.42
17 | N[C@H](C(=O)O)[C@H](O)c1ccc(O)c(O)c1 | inactive: 2.64
18 | COc1cc(/C=C/C(=O)O)ccc1O | inactive: 1.84
19 | Cc1ccc(S(=O)(=O)O)cc1.NC(=O)c1cccc2cn(-c3ccc([C@@H]4CCCNC4)cc3)nc12 [Niraparib tosylate] | inactive: -0.167
20 | Cl.Clc1ccc2nsnc2c1NC1=NCCN1 [Tizanidine hydrochloride] | inactive: 0.723
21 | Brc1c(NC2=NCCN2)ccc2nccnc12.O=C(O)[C@H](O)[C@@H](O)C(=O)O [Brimonidine Tartrate] | inactive: 2.22
22 | CC(=O)[C@@]12O[C@](C)(c3ccccc3)O[C@@H]1CC1C3CCC4=CC(=O)CC[C@]4(C)C3CC[C@@]12C (some centres undefined) | inactive: 4.14

Excerpt, entries 4 to 7
Row | SMILES | cell-cell fusion (z-score)
4 | CC1=C(C(=O)O)N2C(=O)[C@@H](N)[C@H]2SC1 [Cefalexine EP IMpurity B] | inactive: 0.701
5 | CC1(C)C(=O)[C@@H]2C[C@@]3(O)C4=CC(=O)O[C@@H](c5ccoc5)[C@]4(C)CCC3[C@@](C)(C2=O)[C@H]1CC(=O)O (some centres undefined) | inactive: 2.18
6 | Oc1ccc2ccccc2c1SSc1c(O)ccc2ccccc12 | active: -6.24
7 | CN(C)CCC(c1ccc(Br)cc1)c1ccccn1.O=C(O)/C=C\C(=O)O (racemic) [(±)-Brompheniramine maleate] | inactive: 2.66

Continued.

Row | SMILES | cell-cell fusion (z-score)
23 | CC1Cc2ccccc2N1NC(=O)c1ccc(Cl)c(S(N)(=O)=O)c1 (centres undefined) [Indapamide] | inactive: 0.188
24 | CNCCc1ccccn1.Cl.Cl | inactive: 2.83
25 | O=C(O)CCC(=O)O.c1ccc(C2(c3ccccc3)CC2C2=NCCN2)cc1 (centres undefined) [Cibenzoline succinate] | inactive: 2.17
26 | C[C@H](CCC(=O)NCC(=O)O)[C@H]1CCC2C3C(C[C@H](O)[C@@]21C)[C@@]1(C)CC[C@@H](O)CC1C[C@H]3O (some centres undefined) | inactive: 2.22
27 | C1CCN2C[C@@H]3C[C@H](CN4CCCC[C@@H]34)[C@H]2C1.I | inactive: 3.45
28 | COc1cc(C(O)CN)ccc1O.Cl (racemic) [(±)-Normetanephrine hydrochloride] | inactive: 2.24
29 | Nc1nc(Cl)nc2c1ncn2[C@@H]1O[C@H](CO)[C@H](O)C1O (some centres undefined) [2-Chloroadenosine] | inactive: 0.646
30 | NS(=O)(=O)c1ccc(C(=O)O)cc1 | inactive: 2
31 | CN/C(=C\[N+](=O)[O-])NCCSCc1ccc(CN(C)C)o1.Cl | inactive: 1.94
32 | CN/C(=C\[N+](=O)[O-])NCCSCc1ccc(CN(C)C)o1.Cl [Ranitidine hydrochloride] | inactive: 3.5
33 | C[N+](C)(C)C[C@H](O)CC(=O)[O-] | inactive: 2.28
34 | C=CC[C@@H]1/C=C(\C)C[C@H](C)C[C@H](OC)[C@H]2O[C@@](O)(C(=O)C(=O)N3CCCC[C@H]3C(=O)O[C@H](/C(C)=C/[C@@H]3CC[C@@H](O)[C@H](OC)C3)[C@H](C)[C@@H](O)CC1=O)[C@H](C)C[C@@H]2OC [Tacrolimus] | active: -15.8
35 | C/C=C(/C)C(=O)O[C@H]1CC[C@@]2(C)[C@@H]3CC[C@H]4[C@]5(O)C[C@H](O)[C@@]6(O)[C@@H](CN7C[C@@H](C)CC[C@H]7[C@@]6(C)O)[C@]5(O)C[C@@]42O[C@]13O.Cl | inactive: 0.944
36 | CNC(=O)c1cc(Oc2ccc(NC(=O)Nc3ccc(Cl)c(C(F)(F)F)c3)cc2)ccn1 [Sorafenib] | active: -6.7
37 | Cn1nnc(-c2ccc(-c3ccc(N4C[C@H](CO)OC4=O)cc3F)cn2)n1 [Torezolid] | inactive: 2.42
38 | Cl.O=C1NCCc2[nH]c(-c3ccncc3)cc21 | inactive: 2.31 and inactive: 0.2
39 | CC(=O)OCC(COC(C)=O)OC(C)=O | inactive: 2.54
40 | C[C@@H]1O[C@@H](O[C@H]2C[C@@H](O)[C@]3(CO)C4C(CC[C@]3(O)C2)[C@@]2(O)CC[C@H](C3=CC(=O)OC3)[C@@]2(C)C[C@H]4O)[C@H](O)[C@H](O)[C@H]1O.O.O.O.O.O.O.O.O (some centres undefined) | inactive: 1.61
41 | CCCCCCCCCCCCCCCC(=O)OCC(O)[C@H]1OC(=O)C(O)=C1O (some centres undefined) | inactive: 0.937
42 | CN1CCC[C@@H]1Cc1c[nH]c2ccc(Nc3ncccc3[N+](=O)[O-])cc12 | inactive: -2.41
43 | CC#CC(=O)N1CCC[C@H]1c1nc(-c2ccc(C(=O)Nc3ccccn3)cc2)c2c(N)nccn12 [Acalabrutinib] | inactive: 1.12
44 | CC1(C)CCC(c2ccc(Cl)cc2)=C(CN2CCN(c3ccc(C(=O)NS(=O)(=O)c4ccc(N[C@H](CCN5CCOCC5)CSc5ccccc5)c(S(=O)(=O)C(F)(F)F)c4)cc3)CC2)C1 [ABT-263 (Navitoclax)] | inactive: 2.22

Row | SMILES | cell-cell fusion (z-score)
45 | CCC(C(N)=O)c1ccccc1 (centres undefined) | inactive: 0.448
46 | CO[C@H]1C[C@@H]2CC[C@@H](C)[C@@](O)(O2)C(=O)C(=O)N2CCCC[C@H]2C(=O)O[C@H]([C@@H](C)C[C@@H]2CC[C@@H](OCCO)[C@H](OC)C2)CC(=O)[C@H](C)/C=C(\C)[C@H](O)[C@@H](OC)C(=O)[C@H](C)C[C@H](C)/C=C/C=C/C=C/1C [Everolimus (RAD001)] | -3.72 ± 8.1
47 | NS(=O)(=O)c1cc(C(=O)O)c(NCc2ccco2)cc1Cl | inactive: 0.661
48 | CC(C)(O)CC(=O)NCCn1ccc2ncnc(Nc3ccc(Oc4cccc(C(F)(F)F)c4)c(Cl)c3)c21 | active: -15
49 | CC[C@H]1CN2CCc3cc(OC)c(OC)cc3[C@@H]2C[C@@H]1C[C@H]1NCCc2cc(OC)c(OC)cc21.Cl.Cl [Emetine dihydrochloride hydrate] | inactive: -1.09
50 | NCCCC[C@H](N[C@@H](CCc1ccccc1)C(=O)O)C(=O)N1CCC[C@H]1C(=O)O.O.O [Lisinopril dihydrate] | inactive: 1.74
51 | N#CC(c1ccc(Cl)cc1)c1c(Cl)cc(-n2ncc(=O)[nH]c2=O)cc1Cl (centres undefined) | inactive: 0.333
52 | CC(=O)c1ccc2c(c1)N(CCCN1CCC(CCO)CC1)c1ccccc1S2 | inactive: 3.83
53 | COc1ccc(CNC(=O)Nc2ncc([N+](=O)[O-])s2)cc1 | inactive: 0.848
54 | CO/N=C1\CN(c2nc3c(cc2F)c(=O)c(C(=O)O)cn3C2CC2)CC1CN.CS(=O)(=O)O (centres undefined) [Gemifloxacin mesylate] | inactive: 0.874
55 | Clc1ccc(C(Cn2ccnc2)OCc2ccsc2Cl)c(Cl)c1 (centres undefined) [Vagistat] | inactive: 1.8
56 | Cc1cccc(Nc2ccncc2S(=O)(=O)NC(=O)NC(C)C)c1 [Torasemide] | inactive: 2.09
57 | Cl.c1ccc(C2CC2)c(OCC2=NCCN2)c1 [Cirazoline hydrochloride] | inactive: 3.89
58 | CN(C)[C@@H]1C(O)=C(C(N)=O)C(=O)[C@@]2(O)C(O)=C3C(=O)c4c(O)cccc4[C@@](C)(O)[C@H]3C[C@@H]12 [Tetracycline] | inactive: 1.25
59 | CC(=O)Nc1ccc(OC[C@](C)(O)C(=O)Nc2ccc([N+](=O)[O-])c(C(F)(F)F)c2)cc1 [Andarine (GTX-007)] | inactive: 1.34
60 | Cn1cc(C2=C(c3cn(C4CCN(Cc5ccccn5)CC4)c4ccccc34)C(=O)NC2=O)c2ccccc21 | inactive: 2.27
61 | CN(C)/N=N/c1[nH]cnc1C(N)=O | inactive: 0.456
62 | NC(CO)(CO)CO.O=C(c1ccccc1)c1ccc2n1CCC2C(=O)O (centres undefined) [Ketorolac tromethamine salt] | inactive: 0.297
63 | O=C(O)/C=C/C=C/c1ccccc1 | inactive: 2.62
64 | Br.CCCN(CCC)C1CCc2ccc(O)cc2C1 (racemic) [(±)-7-Hydroxy-DPAT hydrobromide] | inactive: 0.623
